Measurements: the supplement of paper PMC10338343
± gives the standard deviation. The list shows a part of the results, in another mix than the full data. The uncertainty is large for many entries.

Test system: MILI (PIWIL2) piRISC loaded with L1MC piRNA (26 nt)
Assay: pre-steady-state target cleavage rate (min^-1); MIWI and MILI are mouse PIWI proteins and EfPiwi is from a freshwater sponge; tags in brackets are library labels; higher = faster piRNA-guided slicing of the target
Conditions: guide: L1MC piRNA 5'p-UAACUAAAUACUAUGCAAGCUGUAGG; auxiliary factor: 500 nM mouse GTSF1
Experimental: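 Cleave-'n-Seq: a library of target RNAs (target site embedded in constant flanks, ACAGCATTCCGCGTTAGTGATATCCG... 5' flank; DNA-blocked outside the site) at 0.1 nM was incubated with 1 nM active mouse MILI or MIWI piRISC (synthetic 5'-monophosphorylated piRNA guide) with or without 500 nM mouse GTSF1 at 33 °C for 1 min to 16 h. Uncleaved targets were sequenced and normalised to non-target controls, and the pooled three trials were fitted to a burst-and-steady-state model to give the pre-steady-state cleavage rate (min^-1; k3 is constrained to at most 1e-4). Sequence is the target site only; target names encode pairing extent (gX:gY) and contiguous / 1-mismatch / 2-mismatch / bulge geometry. Fits with R² ≤ 0 are excluded.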

Sequence | pre-steady-state target cleavage rate
UCCUGGAUGAGCUAGCAUAGUAUUUAGAUA | 0.168 ± 0.028
UCCUGGAUGUCCUUGCAUAGUGUUUAGUUA | 0.0572 ± 0.012
UCCUGGAUGUCGUUGCAUAGUAUUUAGUA | 0.148 ± 0.022
UCCUGGAUGAGCUUGCAAUGUAUUUAGUAA | 0.0194 ± 0.0045
UCCUGGAUGUCGAUGGUUAGUAUUUAGUUA | 0.00091 ± 0.011
UCCUGGUACAGCUUGCAAUGUAUUUACAAA | 0.00784 ± 0.0049
UCCUGGAUGUCGAUGCAUUGUAUUUUGUUA | 0.00184 ± 0.007
UCCUGGAUGUCGUGCAUAGUAUUUAGUUA | 0.115 ± 0.014
UCCUGGAUGUCGUUGCAUAGCUAUUUAGUUA | 0.00105 ± 0.0094
UCCUCCUACAGCUUGGAUAGUAAUUAGUUA | 0.25 ± 0.024
UCCUGGUACAGCUUGCAGUAGUAUUUAGUUA | 0.00495 ± 0.0037
UCCUGGAUGUCCUAGCAUAGUAUUUUGUUA | 0.0105 ± 0.0061
UCCUGGAUGAGCUUGCAGAGUAUUUAGUUA | 0.0869 ± 0.0095

Same assay, conditions: guide: L1MC piRNA 5'p-UAACUAAAUACUAUGCAAGCUGUAGG; auxiliary factor: none (no GTSF1)

Sequence | pre-steady-state target cleavage rate
UCCUGGAUGUCGAACGAUAGUUUUAGUUA | 0.000134 ± 0.031
UCCUGGAUGAGCUAGCAUAGUAUUUAGAUA | 0.00234 ± 0.0029
UCCUGGUACAGCUUGCAUAGUAUAAACAAA | 0.00104 ± 0.0076
UCCUGGAUGUCCUUGCAUAGUGUUUAGUUA | 0.00445 ± 0.0025
UCCUCCUACAGCUUGCAUAGUUUUUAGAAA | 0.00123 ± 0.0044
UCCUGGAUGUCGUUGCAUAGUAUUUAGUA | 0.00424 ± 0.0026
UCCUGGAUGAGCUUGCAAUGUAUUUAGUAA | 0.00717 ± 0.0024
UCCUGGAUGUCGAUGGUUAGUAUUUAGUUA | 0.000288 ± 0.019
UCCUGGUACAGCUUGCAAUGUAUUUACAAA | 0.00185 ± 0.0046
UCCUGGAUGUCGAUGCAUUGUAUUUUGUUA | 0.00045 ± 0.014
UCCUGGAUGUCCUUGCAUAGUAUUUACUAA | 0.000853 ± 0.0054
UCCUGGAUGUCGUGCAUAGUAUUUAGUUA | 0.00386 ± 0.0022
UCCUGGAUGUGCUUGCUAUGUAUUUAGAAA | 0.00112 ± 0.0051
UCCUGGAUGAGCUUGCAUAGUAAAAAGUUA | 0.00103 ± 0.0065
UCCUGCUACAGCUUCCAUAGUAUAUAGUUA | 0.000679 ± 0.0092
UCCUGGAUCAGCUUGCAUAGUAAUUACUUA | 0.00137 ± 0.0044
UCCUGGAACAGCUUGCAUAGUAAAAAGUAA | 0.00104 ± 0.0056
UCCUCCAUCAGCUUGCAUAGUAUUUAGAAA | 0.00126 ± 0.0049
UCCUGGAUGUCGUUGCAUAGCUAUUUAGUUA | 0.000215 ± 0.026
UCCUGGAUGAGCUUGGAUAGUAUUUUGUUA | 0.00143 ± 0.0044
UCCUCCUACAGCUUGGAUAGUAAUUAGUUA | 0.00499 ± 0.0021
UCCUGCUUGUGCUUGCAUAGUAUUUAGAAA | 0.00093 ± 0.0051
UCCUGGUACAGCUUGCAGUAGUAUUUAGUUA | 0.00173 ± 0.0055
UCCUGGUACAGCUUGCAUACAUAAAUCAAA [g12:g24:cont:t1A] | 0.000959 ± 0.0073
UCCUGGAUGUCCUUGCAUUCAAUUUAGUAA | 0.000423 ± 0.013
UCCUGGAUGUCCUAGCAUAGUAUUUUGUUA | 0.00141 ± 0.005
UCCUGCUACAGCUUGGUAAGUAUUUAGUAA | 0.00122 ± 0.0049
UCCUGGAUGAGCUUGCAGAGUAUUUAGUUA | 0.00792 ± 0.0024
